Screening data, single-dose tests

Chains of the proteins cited; added tags and fusions are not shown.
UniProt I6X8D2, whole entry: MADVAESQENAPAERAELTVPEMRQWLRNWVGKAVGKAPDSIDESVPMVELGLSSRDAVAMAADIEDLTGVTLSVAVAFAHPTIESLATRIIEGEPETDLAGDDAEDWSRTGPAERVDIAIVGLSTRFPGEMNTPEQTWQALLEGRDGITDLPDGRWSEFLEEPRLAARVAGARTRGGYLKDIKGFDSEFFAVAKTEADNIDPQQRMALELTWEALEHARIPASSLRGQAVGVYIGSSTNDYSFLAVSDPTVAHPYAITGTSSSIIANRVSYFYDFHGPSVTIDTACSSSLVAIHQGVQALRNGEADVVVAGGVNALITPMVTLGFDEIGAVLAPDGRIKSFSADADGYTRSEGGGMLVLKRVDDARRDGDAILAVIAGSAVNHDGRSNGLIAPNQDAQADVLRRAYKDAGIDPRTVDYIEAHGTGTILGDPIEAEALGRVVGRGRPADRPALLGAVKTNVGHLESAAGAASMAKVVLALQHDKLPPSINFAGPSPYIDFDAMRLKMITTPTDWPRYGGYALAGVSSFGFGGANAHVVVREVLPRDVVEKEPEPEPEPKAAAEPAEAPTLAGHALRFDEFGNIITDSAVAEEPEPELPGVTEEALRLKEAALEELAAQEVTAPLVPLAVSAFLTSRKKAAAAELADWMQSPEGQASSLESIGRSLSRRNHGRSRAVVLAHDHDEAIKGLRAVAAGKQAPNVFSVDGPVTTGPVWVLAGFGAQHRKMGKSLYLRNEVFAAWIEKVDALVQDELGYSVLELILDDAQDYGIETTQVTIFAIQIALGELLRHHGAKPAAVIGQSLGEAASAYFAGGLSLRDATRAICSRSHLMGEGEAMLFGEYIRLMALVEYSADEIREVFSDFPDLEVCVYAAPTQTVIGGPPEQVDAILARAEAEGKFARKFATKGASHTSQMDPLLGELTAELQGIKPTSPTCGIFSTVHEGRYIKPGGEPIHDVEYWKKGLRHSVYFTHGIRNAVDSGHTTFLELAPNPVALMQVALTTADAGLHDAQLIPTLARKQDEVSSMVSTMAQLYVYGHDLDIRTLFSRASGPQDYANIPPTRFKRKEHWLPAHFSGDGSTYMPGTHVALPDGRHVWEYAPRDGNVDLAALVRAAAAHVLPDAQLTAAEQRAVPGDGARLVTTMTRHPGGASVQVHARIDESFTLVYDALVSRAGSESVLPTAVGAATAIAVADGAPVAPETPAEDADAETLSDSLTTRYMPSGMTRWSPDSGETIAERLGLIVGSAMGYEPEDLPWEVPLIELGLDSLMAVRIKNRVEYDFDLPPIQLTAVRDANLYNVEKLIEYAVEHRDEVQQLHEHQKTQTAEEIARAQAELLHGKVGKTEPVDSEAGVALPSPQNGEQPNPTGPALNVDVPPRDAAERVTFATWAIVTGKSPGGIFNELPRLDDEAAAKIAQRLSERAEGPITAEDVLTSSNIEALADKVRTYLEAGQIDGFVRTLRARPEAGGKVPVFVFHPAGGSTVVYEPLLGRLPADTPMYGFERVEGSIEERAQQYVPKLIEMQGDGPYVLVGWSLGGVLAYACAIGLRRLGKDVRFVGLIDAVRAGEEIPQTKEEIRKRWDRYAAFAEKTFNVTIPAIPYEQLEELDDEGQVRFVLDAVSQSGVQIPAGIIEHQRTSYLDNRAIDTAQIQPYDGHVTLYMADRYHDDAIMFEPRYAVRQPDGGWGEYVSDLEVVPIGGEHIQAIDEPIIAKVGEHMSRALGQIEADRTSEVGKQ

Measurements from “University of Dundee, Small-Polar-MMV Screening Library” (2021), ChEMBL document CHEMBL3988442.

Each number is a percent effect as filed. The record does not define 0% and 100%; most values in the screen are far below 50% and negative numbers occur (in some assays of this library far below -100). Compounds were drawn at random from those tested, without regard to their results.

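Enzyme assay of the thioesterase domain of polyketide synthase 13; the read-out is not stated. Target: Polyketide synthase Pks13, Mycobacterium tuberculosis (UniProt I6X8D2). Concentration: 30 µM. Higher reads as stronger inhibition (inferred from which compounds were picked for retests). Size under these conditions: about 67,000 compounds, about 300 of them at 50% or above in at least one test.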

Compound	effect
CC(NC(=O)Cn1ccc(=O)n(C)c1=O)c1cc(F)ccc1F (centres undefined)	-0.7346
Cc1cc(C)c(N(CC(O)CNCc2ccco2)S(C)(=O)=O)c(C)c1 (centres undefined)	7.615
COC1CCCOC12CCN(C(=O)NCc1ccco1)CC2 (centres undefined)	-11.79
CCS(=O)(=O)CCNC(=O)NC(C)c1ccc(C)s1 (centres undefined)	4.394
O=C(C1CC2(CCNCC2)CN1)N1CCN(c2ccccc2)CC1 (centres undefined)	2.305
Cc1cnn(C2CN(CC(=O)NCc3ccccn3)C2)c1	-21.13
CCCNC(=O)C1CCN(CC(O)c2ccccc2C(F)(F)F)CC1 (centres undefined)	-14.15
CN(C)c1nc(N)nc(CN2CCCC2c2ccsc2)n1 (centres undefined)	-4.858
COc1cccc(N2CC3(CCN(Cc4nccn4C)C3)CC2=O)c1 (centres undefined)	-12
Cn1ccc(C(=O)N2CCN(c3ccccn3)CC2)cc1=O	7.496
Fc1cccc(CN2CCOC3(COCCN(CC4CC4)C3)C2)c1 (centres undefined)	-9.479
Cc1nc(C)n(CC2CCCCN2CCCN2CCCC2=O)n1 (centres undefined)	-2.335
CNC(=O)[C@@H]1CN(Cc2ccccc2)C[C@H]1C(=O)c1ccc(F)cc1	-3.588
Cc1cccc(-c2nnn3c2COC(CNC(=O)N2CCCC2)C3)c1 (centres undefined)	-0.5155
Cc1cc2c(=O)n3c(nc2s1)CCN(C(=O)c1ccncc1)CC3	-33.57
CN(C)C(=O)N1CCc2c(nnn2C)C1COCC1CC1 (centres undefined)	-25.58
COCCOc1ncccc1-c1noc([C@@H]2CCCN2C2CCC2)n1	-13.16
CC(O)CN1CCN(C(=O)c2ccc(Cn3cccn3)cc2)CC1 (centres undefined)	-1.449
c1cc(CCN2CCC(NCc3ccsc3)CC2)ccn1	-4.291
COCC(=O)N1CCCC1c1ccc(C(=O)NCCN2CCCCC2)s1 (centres undefined)	-6.3
CC(C)c1nnc2n1CCN(C(=O)c1ccc(OCC(N)=O)cc1)C2	-23.04
CCN(Cc1ccncc1)CC1(O)CCN(C(=O)c2cccc(C)c2)C1 (centres undefined)	1.403
CN1CCC(c2n[nH]cc2-c2ccnc(N)c2)C1 (centres undefined)	2.701
NC(=O)CN1CCCC1c1ccccc1Br (centres undefined)	-20.8
CCOc1ccccc1C(=O)NCc1nncn1C1CC1	-3.197
CN(CC(=O)Nc1cc(C(C)(C)C)n[nH]1)S(C)(=O)=O	4.148
Cc1ccc([C@@H]2CN(C(=O)c3cc[nH]c3)C[C@H]2NC(=O)C2CC2)cc1	1.431
CC(C)c1nn(C)c(Cl)c1CNCC(=O)N1CCN(C)CC1	-9.384
CC1COCCN1Cc1noc(C(C)(C)C)n1 (centres undefined)	-4.194
Cc1cc(CNC(=O)NCCOc2ccc(F)c(F)c2)on1	-24.78
CN1CCN(c2cnn(CCn3cccn3)c(=O)c2)CC1	-24.79
Cn1cc(-c2csc(N3CCN(C(=O)OC(C)(C)C)CC3)n2)cn1	-13.56
COCC(=O)N1CC[C@H]2[C@H]1CCN2CC(C)C	-16.38
O[C@@H]1C[C@@H](c2nc(-c3ccc(OC(F)(F)F)cc3)no2)N(CC2CC2)C1	-11.63
CCN(c1ccc(C(=O)NCCCN2CCOCC2)cc1)S(=O)(=O)CC	-17.94
COc1ccc(CNCC2CC2)cc1F	-9.072
O=C(CCc1ccncc1)N1CCCC(n2cccn2)C1 (centres undefined)	-8.314
O=C(NCCC1CN(C2CCCC2)CCO1)c1c[nH]c(=O)[nH]c1=O (centres undefined)	5.104
CC(C)N1CCO[C@H]2CN(Cc3cc[nH]n3)C[C@H]21	-16.1
Cc1nnc2n1CCN(C(=O)C1CCN(Cc3ccccc3)CC1)C2	-15.73
O=C([C@H]1C[C@H]2OCC[C@H]2N(C(=O)c2ccncc2)C1)N1CCCCO1	-16.78
CN(C)C(=O)c1cc(-c2ccncc2)[nH]n1	9.265
O=C1CC(c2ccsc2)c2sc(C(=O)O)c(-c3ccccc3)c2N1 (centres undefined)	-12.23
CCC(=O)N1CCC[C@]2(C(=O)N(C)C)CN(c3ccccn3)C[C@@H]2C1	-6.371
CC(C)n1ncc2c1NC(=O)C(C#N)C21CCCCC1 (centres undefined)	-5.653
Cc1ccc(S(=O)(=O)N2C[C@H]3C[C@H](NC(=O)c4cnn(C)c4)[C@H]3C2)cc1	7.996
CC(C)c1nnc2n1CCN(c1nn3cc(C(C)(C)C)nc3s1)C2	-45.99
CN(C)Cc1cn2c(n1)CN(C1CCOC1)CC2 (centres undefined)	-16.03
CC(C)c1nc(C2CCCN2C(=O)c2ccc(N(C)C)nn2)no1 (centres undefined)	-9.136
CCNC(=O)[C@@H]1C[C@H](n2cc(CC3CCCCC3)nn2)CN1	-17.93
Cc1nccc(C2CN(S(=O)(=O)N(C)C)C2)n1	3.412
CN(Cc1ncc(-c2ccccc2)o1)CC1CCCN1c1cccnn1 (centres undefined)	-6.47
O=c1[nH]c2c(c(=O)n1C1CCCCC1)CCC2Nc1ccccc1 (centres undefined)	-36.34
O=C(Cc1ccsc1)N1C[C@@H]2CN(Cc3ccoc3)CCO[C@@H]2C1	-25.8
Cc1ccsc1-c1nc(CN(C)Cc2cc[nH]n2)c(C)o1	-14.47
O=C(C1CCOCC1)N1CCC2(CC1)CN(c1ccsc1)C(=O)CO2	-3.295
Cc1nc(CNC(=O)c2cc(Cn3ccnc3C(C)C)[nH]n2)sc1C	-1.608
COc1ccc(C(=O)CNC(=O)c2nc(Cl)sc2C(C)C)cc1	30.27
O=S(=O)(Cc1ccccc1)c1nnc(N2CCCC2)s1	-0.5583
Cc1cc(CNC(C)Cn2cncn2)ccc1Br (centres undefined)	-2.998
COCCN(Cc1ccccc1)C(=O)c1cnn(C)c1C	-5.999
O=C1CC(c2ccccc2)C2(CCN(C(=O)c3cnccn3)CC2)N1 (centres undefined)	-19.46
COCCNC(=O)[C@@H](C)[C@@H]1CCc2c(C)cc(OCC(=O)O)c(C)c2C1	-21.88
COc1cc(C(=O)NCCS(=O)(=O)N(C)C)c2ccccc2n1	-14.28
COCC(=O)NCCn1ccc2c(OC)cccc21	-19.74
CC1CN(CC(=O)N2CCOCC2)CCN1Cc1nccn1C (centres undefined)	-15.51
c1cnn(CC2CN(c3ncnc4[nH]ccc34)CCO2)c1 (centres undefined)	-8.88
CCN(C(=O)CN1CCCC1c1ccc(OC)cc1)c1ccccc1 (centres undefined)	9.743
CN(CC1CCCCO1)S(=O)(=O)c1cccc(C(=O)N2CCOCC2)c1 (centres undefined)	-2.612
O=S(=O)(NCC(c1ccsc1)N1CCCCCC1)c1cccs1 (centres undefined)	-3.028
CC(C)(C)NCc1ccc(OCc2ccc3c(c2)OCCO3)cc1	-8.51

For reference, 4 entries once more:

Cc1cnn(C2CN(CC(=O)NCc3ccccn3)C2)c1 read -21.13%.
Fc1cccc(CN2CCOC3(COCCN(CC4CC4)C3)C2)c1 (centres undefined) read -9.479%.
CC(O)CN1CCN(C(=O)c2ccc(Cn3cccn3)cc2)CC1 (centres undefined) read -1.449%.
CCN(Cc1ccncc1)CC1(O)CCN(C(=O)c2cccc(C)c2)C1 (centres undefined) read 1.403%.